For 15 targets, NP40-soluble protein abundance results are on record in the supplement of paper PMC6411743.

Amino acid sequences for entries named in this document (tags omitted). A change or cut given only in a name is not applied to a line headed by its entry.
UniProt Q01433: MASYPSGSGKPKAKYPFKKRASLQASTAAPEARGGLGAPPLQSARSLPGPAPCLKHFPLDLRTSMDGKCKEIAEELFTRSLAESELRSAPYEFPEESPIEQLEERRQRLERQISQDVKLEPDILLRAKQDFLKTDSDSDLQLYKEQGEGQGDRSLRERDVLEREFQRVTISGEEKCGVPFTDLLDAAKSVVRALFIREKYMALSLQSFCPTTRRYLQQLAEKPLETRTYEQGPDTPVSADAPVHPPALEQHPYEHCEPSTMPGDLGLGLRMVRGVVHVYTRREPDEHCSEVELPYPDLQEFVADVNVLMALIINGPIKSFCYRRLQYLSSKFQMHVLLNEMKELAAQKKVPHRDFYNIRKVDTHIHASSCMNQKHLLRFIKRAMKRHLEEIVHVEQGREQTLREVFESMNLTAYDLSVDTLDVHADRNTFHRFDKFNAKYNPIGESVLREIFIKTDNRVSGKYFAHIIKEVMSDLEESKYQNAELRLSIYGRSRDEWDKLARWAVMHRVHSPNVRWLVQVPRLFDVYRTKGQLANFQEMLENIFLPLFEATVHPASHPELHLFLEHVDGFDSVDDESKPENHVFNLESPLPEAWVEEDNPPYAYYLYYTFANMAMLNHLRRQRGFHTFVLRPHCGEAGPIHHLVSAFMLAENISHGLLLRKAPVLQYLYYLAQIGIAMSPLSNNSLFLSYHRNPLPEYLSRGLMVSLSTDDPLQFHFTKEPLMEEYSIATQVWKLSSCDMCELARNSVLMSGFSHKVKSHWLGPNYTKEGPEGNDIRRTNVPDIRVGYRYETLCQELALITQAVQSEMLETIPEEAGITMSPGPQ
UniProt Q7LG56, whole entry: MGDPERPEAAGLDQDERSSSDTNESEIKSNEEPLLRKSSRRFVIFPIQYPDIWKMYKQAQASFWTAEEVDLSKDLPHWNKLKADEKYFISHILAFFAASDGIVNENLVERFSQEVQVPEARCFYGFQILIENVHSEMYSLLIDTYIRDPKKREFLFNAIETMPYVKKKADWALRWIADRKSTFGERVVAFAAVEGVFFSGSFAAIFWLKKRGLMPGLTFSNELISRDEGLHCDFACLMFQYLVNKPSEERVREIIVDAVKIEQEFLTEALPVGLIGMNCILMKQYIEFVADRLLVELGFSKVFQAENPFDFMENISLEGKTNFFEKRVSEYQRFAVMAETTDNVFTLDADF
UniProt Q96RK0: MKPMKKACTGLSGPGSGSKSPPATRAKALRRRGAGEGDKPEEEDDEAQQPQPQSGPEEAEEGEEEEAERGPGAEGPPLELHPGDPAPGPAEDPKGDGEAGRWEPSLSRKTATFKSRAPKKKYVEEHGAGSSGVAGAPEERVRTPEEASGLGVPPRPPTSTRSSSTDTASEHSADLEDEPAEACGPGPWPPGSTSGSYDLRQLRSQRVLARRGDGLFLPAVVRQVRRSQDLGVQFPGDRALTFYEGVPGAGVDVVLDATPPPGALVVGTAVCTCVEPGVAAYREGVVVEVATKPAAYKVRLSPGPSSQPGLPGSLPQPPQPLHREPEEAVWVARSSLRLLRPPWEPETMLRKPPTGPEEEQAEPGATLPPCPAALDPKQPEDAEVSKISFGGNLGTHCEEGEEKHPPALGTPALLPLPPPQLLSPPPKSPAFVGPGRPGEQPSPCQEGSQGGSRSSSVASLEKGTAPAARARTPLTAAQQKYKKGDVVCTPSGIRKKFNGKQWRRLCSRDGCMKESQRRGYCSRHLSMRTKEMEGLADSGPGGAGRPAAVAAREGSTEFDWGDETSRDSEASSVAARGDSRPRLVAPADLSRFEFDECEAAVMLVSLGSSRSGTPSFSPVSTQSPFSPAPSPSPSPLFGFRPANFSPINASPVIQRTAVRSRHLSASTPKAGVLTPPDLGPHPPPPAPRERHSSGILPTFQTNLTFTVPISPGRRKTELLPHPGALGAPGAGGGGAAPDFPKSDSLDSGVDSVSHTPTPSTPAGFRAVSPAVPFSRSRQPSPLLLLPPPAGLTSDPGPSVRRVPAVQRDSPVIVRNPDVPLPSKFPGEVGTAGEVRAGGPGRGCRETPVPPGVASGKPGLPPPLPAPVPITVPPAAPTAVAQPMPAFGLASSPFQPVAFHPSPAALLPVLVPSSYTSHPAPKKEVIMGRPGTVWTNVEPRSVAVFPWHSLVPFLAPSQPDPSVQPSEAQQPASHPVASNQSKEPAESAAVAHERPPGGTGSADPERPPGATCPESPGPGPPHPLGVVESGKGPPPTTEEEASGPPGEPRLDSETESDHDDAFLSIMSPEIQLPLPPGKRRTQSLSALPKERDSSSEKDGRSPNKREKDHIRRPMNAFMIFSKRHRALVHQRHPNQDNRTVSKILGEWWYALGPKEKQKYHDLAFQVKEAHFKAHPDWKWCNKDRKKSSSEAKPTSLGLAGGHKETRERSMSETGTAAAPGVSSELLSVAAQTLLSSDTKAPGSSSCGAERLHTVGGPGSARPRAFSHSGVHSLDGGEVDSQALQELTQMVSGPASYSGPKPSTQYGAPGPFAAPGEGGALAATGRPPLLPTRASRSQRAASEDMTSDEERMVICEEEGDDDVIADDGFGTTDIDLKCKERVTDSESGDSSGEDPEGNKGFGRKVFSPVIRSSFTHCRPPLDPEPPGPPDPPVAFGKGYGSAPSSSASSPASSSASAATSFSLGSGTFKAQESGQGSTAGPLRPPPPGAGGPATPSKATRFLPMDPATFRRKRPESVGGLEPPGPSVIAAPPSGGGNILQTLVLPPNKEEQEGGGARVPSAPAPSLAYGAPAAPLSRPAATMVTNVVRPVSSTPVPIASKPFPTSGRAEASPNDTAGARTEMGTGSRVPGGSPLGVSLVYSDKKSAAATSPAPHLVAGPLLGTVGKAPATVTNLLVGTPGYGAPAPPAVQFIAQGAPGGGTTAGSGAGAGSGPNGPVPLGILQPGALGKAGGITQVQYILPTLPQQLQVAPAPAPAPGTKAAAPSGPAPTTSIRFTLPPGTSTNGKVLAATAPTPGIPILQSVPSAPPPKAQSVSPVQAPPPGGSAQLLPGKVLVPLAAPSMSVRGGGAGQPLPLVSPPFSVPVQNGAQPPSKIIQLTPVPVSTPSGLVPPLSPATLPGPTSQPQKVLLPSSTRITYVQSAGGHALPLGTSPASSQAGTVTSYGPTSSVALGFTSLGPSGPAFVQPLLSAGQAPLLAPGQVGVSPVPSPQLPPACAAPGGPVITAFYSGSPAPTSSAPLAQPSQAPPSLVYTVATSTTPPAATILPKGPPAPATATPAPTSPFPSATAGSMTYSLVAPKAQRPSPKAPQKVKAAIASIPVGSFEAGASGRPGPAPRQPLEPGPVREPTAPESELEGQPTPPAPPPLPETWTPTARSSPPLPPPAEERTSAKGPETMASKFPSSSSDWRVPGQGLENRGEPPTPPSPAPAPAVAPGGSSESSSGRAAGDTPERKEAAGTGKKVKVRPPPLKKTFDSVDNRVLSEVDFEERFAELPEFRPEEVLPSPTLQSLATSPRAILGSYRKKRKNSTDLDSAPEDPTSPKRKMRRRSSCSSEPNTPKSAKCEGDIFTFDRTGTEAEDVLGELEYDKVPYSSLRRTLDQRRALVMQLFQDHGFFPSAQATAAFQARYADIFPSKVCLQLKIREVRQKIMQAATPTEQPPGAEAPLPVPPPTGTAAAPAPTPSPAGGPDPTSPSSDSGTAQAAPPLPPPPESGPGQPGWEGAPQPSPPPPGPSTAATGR
UniProt Q9Y2Z9: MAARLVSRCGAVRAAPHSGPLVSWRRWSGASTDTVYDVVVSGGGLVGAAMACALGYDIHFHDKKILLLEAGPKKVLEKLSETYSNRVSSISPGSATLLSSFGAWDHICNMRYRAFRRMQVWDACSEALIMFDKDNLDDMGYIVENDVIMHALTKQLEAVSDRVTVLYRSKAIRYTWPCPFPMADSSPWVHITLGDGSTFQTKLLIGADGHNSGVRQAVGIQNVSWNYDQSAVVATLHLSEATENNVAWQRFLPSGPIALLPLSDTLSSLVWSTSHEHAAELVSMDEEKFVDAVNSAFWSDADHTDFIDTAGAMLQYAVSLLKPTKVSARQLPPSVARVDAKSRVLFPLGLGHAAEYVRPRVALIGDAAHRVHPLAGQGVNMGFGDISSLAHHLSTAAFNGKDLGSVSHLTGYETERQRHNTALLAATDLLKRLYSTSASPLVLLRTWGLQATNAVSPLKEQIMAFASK
UniProt P05106: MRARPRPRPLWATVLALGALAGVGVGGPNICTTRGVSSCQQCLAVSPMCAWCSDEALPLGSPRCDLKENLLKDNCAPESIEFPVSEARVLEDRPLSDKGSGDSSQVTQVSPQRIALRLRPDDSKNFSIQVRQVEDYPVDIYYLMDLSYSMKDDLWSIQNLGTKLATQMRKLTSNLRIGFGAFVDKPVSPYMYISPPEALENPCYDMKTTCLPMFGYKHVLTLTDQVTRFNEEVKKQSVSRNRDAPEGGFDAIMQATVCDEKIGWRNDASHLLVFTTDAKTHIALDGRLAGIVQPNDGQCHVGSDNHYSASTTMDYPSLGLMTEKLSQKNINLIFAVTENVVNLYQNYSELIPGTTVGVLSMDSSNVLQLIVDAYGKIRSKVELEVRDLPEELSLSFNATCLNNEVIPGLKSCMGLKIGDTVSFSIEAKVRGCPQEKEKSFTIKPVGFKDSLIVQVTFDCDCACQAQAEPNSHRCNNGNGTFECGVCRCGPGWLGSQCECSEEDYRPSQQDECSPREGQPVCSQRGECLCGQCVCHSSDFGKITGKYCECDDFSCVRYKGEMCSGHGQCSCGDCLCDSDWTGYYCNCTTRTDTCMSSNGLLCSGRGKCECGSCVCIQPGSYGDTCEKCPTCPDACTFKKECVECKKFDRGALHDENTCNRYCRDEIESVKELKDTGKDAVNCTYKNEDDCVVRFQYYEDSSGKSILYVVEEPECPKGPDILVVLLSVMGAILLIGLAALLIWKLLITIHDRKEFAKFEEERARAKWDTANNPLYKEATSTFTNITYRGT
UniProt O43169: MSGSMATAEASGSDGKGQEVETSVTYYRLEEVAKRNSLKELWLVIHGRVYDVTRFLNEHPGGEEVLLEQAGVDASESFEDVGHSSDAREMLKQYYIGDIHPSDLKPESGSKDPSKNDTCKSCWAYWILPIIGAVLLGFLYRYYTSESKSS
UniProt Q16822, whole entry: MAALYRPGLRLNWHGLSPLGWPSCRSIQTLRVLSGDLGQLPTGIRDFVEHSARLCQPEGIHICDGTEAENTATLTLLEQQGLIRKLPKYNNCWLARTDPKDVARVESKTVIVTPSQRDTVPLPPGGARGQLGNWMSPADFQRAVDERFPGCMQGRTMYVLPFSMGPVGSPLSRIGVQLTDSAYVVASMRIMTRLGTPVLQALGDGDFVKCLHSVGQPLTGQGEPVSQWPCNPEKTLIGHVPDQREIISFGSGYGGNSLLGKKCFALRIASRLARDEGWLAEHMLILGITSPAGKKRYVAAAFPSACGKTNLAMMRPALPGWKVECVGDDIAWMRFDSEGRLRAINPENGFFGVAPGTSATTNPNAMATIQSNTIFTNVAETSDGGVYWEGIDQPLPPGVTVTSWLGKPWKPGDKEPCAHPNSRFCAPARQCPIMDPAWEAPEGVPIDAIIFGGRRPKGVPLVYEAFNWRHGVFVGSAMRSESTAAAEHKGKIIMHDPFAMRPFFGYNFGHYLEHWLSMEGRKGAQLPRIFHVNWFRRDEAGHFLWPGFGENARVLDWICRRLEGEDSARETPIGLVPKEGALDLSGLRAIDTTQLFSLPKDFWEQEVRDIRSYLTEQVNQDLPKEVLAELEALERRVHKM
UniProt O94788: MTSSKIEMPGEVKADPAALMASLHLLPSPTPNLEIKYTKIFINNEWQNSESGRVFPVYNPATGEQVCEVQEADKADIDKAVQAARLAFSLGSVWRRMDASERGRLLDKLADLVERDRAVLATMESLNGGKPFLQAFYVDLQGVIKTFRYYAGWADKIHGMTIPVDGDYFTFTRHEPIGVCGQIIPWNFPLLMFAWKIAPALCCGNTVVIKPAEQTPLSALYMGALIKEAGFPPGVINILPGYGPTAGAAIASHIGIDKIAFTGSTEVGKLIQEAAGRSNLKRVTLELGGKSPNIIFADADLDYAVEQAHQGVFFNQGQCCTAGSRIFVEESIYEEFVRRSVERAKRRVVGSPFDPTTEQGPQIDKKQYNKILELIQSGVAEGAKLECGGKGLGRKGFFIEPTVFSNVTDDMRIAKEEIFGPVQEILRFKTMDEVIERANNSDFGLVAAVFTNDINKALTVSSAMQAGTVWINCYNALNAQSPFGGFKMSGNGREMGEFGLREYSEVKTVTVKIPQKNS
UniProt Q8WXB1: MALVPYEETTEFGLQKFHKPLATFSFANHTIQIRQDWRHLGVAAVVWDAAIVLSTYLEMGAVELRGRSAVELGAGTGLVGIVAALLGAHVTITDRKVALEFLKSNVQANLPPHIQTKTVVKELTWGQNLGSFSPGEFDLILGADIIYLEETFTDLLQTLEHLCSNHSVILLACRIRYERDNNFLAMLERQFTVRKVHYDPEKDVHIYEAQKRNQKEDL

± gives the standard deviation of the averaged measurements. The list shows a part of the results, in another mix than the full data.

Compound in the test: Nc1ncnc2c1ncn2[C@@H]1O[C@H](COP(=O)(O)OP(=O)(O)NP(=O)(O)O)[C@@H](O)[C@H]1O [adenylyl imidodiphosphate]
The test is described as follows: NP40-soluble protein abundance relative to vehicle (solubility fold change) (ratio); higher = more soluble protein in presence of AMP-PNP. Summed up: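 Crude Jurkat lysate, prepared by Dounce homogenisation, was exposed to eight concentrations from 0.1 to 10 mM for 10 min at room temperature and then 3 min at 37 °C. Solubilisation used 0.8% NP40 with benzonase for 60 min at 4 °C, followed by ultracentrifugation and TMT labelling of the supernatant for LC-MS/MS. After vsn normalisation of intensities, each value is the fold change against the detergent-processed vehicle within each replicate, across three independent experiments.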

Turning to “G5E9Z2 and related entries (UniProt Q96KA5)”, the NP40-soluble protein abundance (concentration: 1mM) was 1.02 ± 0.045; the NP40-soluble protein abundance (concentration: 2mM) was determined as 0.9986 ± 0.0074; the NP40-soluble protein abundance (concentration: 4mM) turned out to be 1 ± 0.033; the NP40-soluble protein abundance (concentration: 6mM) worked out at 1.02 ± 0.039; the NP40-soluble protein abundance (concentration: 8mM) worked out at 1.01 ± 0.049; the NP40-soluble protein abundance (concentration: 10mM) worked out at 1.03 ± 0.046.

Turning to “H0Y360 and related entries (UniProt Q01433)”, the NP40-soluble protein abundance by setting is: (concentration: 1mM) 0.978 ± 0.021; (concentration: 2mM) 0.968 ± 0.028; (concentration: 4mM) 0.963 ± 0.0099; (concentration: 6mM) 0.966 ± 0.016; (concentration: 8mM) 0.968 ± 0.012; (concentration: 10mM) 0.968 ± 0.028.

Turning to “H0YAV1 and related entries (UniProt Q7LG56)”, the NP40-soluble protein abundance (concentration: 1mM) was determined as 0.97 ± 0.012; the NP40-soluble protein abundance (concentration: 2mM) stood at 0.976 ± 0.023; the NP40-soluble protein abundance (concentration: 4mM) amounted to 0.971 ± 0.0099; the NP40-soluble protein abundance (concentration: 6mM) turned out to be 0.9473 ± 0.0023; the NP40-soluble protein abundance (concentration: 8mM) came out at 0.9779 ± 0.0075; the NP40-soluble protein abundance (concentration: 10mM) was 0.957 ± 0.042.

“I3L2J0 and related entries (UniProt Q96RK0)”: the NP40-soluble protein abundance runs as follows: (concentration: 1mM) 1.01 ± 0.017; (concentration: 2mM) 1.03 ± 0.11; (concentration: 4mM) 1.01 ± 0.032; (concentration: 6mM) 0.975 ± 0.028; (concentration: 8mM) 0.986 ± 0.045; (concentration: 10mM) 0.993 ± 0.033.

For the target “G3XA86 and related entries (UniProt Q9Y2Z9)”, the NP40-soluble protein abundance is 0.997 ± 0.025 (concentration: 1mM); 0.98 ± 0.028 (concentration: 2mM); 0.987 ± 0.016 (concentration: 4mM); 0.999 ± 0.022 (concentration: 6mM); 1.01 ± 0.019 (concentration: 8mM); 1.02 ± 0.034 (concentration: 10mM).

On to “H3BM21 and related entries (UniProt P05106+I3L4X8+H3BM21)”, for which the NP40-soluble protein abundance reads like this: (concentration: 1mM) 1 ± 0.012; (concentration: 2mM) 1.02 ± 0.034; (concentration: 4mM) 1.001 ± 0.0047; (concentration: 6mM) 1.03 ± 0.012; (concentration: 8mM) 0.966 ± 0.012; (concentration: 10mM) 0.996 ± 0.013.

On to “H3BLS7 and related entries (UniProt Q5THJ4)”, for which the NP40-soluble protein abundance reads like this: (concentration: 1mM) 0.949 ± 0.069; (concentration: 2mM) 0.947 ± 0.083; (concentration: 4mM) 0.946 ± 0.1; (concentration: 6mM) 0.987 ± 0.075; (concentration: 8mM) 0.963 ± 0.11; (concentration: 10mM) 0.942 ± 0.061.

For “J3KNF8 and related entries (UniProt O43169)”, the NP40-soluble protein abundance reads like this: (concentration: 1mM) 1.15 ± 0.069; (concentration: 2mM) 1.34 ± 0.33; (concentration: 4mM) 1.1 ± 0.049; (concentration: 6mM) 1.08 ± 0.047; (concentration: 8mM) 1.03 ± 0.08; (concentration: 10mM) 1.05 ± 0.054.

For “H0YM31 and related entries (UniProt Q16822)”, the NP40-soluble protein abundance is, setting by setting: (concentration: 1mM) 1.01 ± 0.014; (concentration: 2mM) 0.962 ± 0.075; (concentration: 4mM) 1.017 ± 0.0096; (concentration: 6mM) 0.962 ± 0.027; (concentration: 8mM) 0.972 ± 0.02; (concentration: 10mM) 0.959 ± 0.021.

For “H0YEH1 and related entries (UniProt Q13492)”, the NP40-soluble protein abundance reads like this: (concentration: 1mM) 1.01 ± 0.03; (concentration: 2mM) 1.02 ± 0.061; (concentration: 4mM) 1.048 ± 0.008; (concentration: 6mM) 1.06 ± 0.065; (concentration: 8mM) 1.09 ± 0.049; (concentration: 10mM) 1.12 ± 0.021.

Consider “H0YMG7 and related entries (UniProt O94788)”, for which the NP40-soluble protein abundance was determined as 0.9559 ± 0.005 (concentration: 1mM); 0.875 ± 0.093 (concentration: 2mM); 0.943 ± 0.014 (concentration: 4mM); 0.9015 ± 0.003 (concentration: 6mM); 0.917 ± 0.021 (concentration: 8mM); 0.8663 ± 0.0029 (concentration: 10mM).

On to “I3L0L6 and related entries (UniProt Q9H6Y7)”, for which the NP40-soluble protein abundance (concentration: 1mM) turned out to be 1.04 ± 0.048; the NP40-soluble protein abundance (concentration: 2mM) was 1.15 ± 0.14; the NP40-soluble protein abundance (concentration: 4mM) worked out at 1.04 ± 0.061; the NP40-soluble protein abundance (concentration: 6mM) was determined as 1.07 ± 0.088; the NP40-soluble protein abundance (concentration: 8mM) was determined as 1.09 ± 0.083; the NP40-soluble protein abundance (concentration: 10mM) is 1.12 ± 0.12.

On to “H7BXH9 and related entries (UniProt Q8WXB1)”, for which the NP40-soluble protein abundance is 0.992 ± 0.038 (concentration: 1mM); 0.952 ± 0.044 (concentration: 2mM); 1.01 ± 0.021 (concentration: 4mM); 0.9757 ± 0.0078 (concentration: 6mM); 1.002 ± 0.0044 (concentration: 8mM); 0.9848 ± 0.0041 (concentration: 10mM).

For the target H7C3T3 (UniProt Q9UPV9), the NP40-soluble protein abundance runs as follows: (concentration: 1mM) 0.961 ± 0.014; (concentration: 2mM) 0.969 ± 0.018; (concentration: 4mM) 0.945 ± 0.084; (concentration: 6mM) 0.914 ± 0.066; (concentration: 8mM) 0.901 ± 0.022; (concentration: 10mM) 0.87 ± 0.026.

“J3KNV1 and related entries (UniProt O60281)”: the NP40-soluble protein abundance reads like this: (concentration: 1mM) 1.02 ± 0.034; (concentration: 2mM) 1.08 ± 0.024; (concentration: 4mM) 1.016 ± 0.0028; (concentration: 6mM) 0.966 ± 0.034; (concentration: 8mM) 0.968 ± 0.02; (concentration: 10mM) 0.985 ± 0.041.
